These results are taken from US5175254 (dated 1992).

No end group written: not given here.

The nature of the data set: Boc solid-phase peptide synthesis; polyacrylic resin (EP 0 079 812 / EP 0 081 408), amidified with ethylene diamine; symmetrical anhydride. Particulars: whole synthesis.

Substance CSDSEKLNLDSI-OH displayed a crude yield of 58.6%.

Consider “pyro-Glu-His-Trp-Ser-Tyr-DTrp-Leu-Arg-Pro-Gly”, for which the isolated yield (based on the starting amino groups of the support) amounted to 51%.
